Results published in paper PMC10687025, “Endosomal Arl4A attenuates EGFR degradation by binding to the ESCRT-II component VPS36” (Nature Communications, 2023).

Protein sequences, listed by entry. Tags and fused reporters are not part of them. Lines headed by an entry give the natural chain unless they say otherwise; changes in a name come on top.
UniProt P49703: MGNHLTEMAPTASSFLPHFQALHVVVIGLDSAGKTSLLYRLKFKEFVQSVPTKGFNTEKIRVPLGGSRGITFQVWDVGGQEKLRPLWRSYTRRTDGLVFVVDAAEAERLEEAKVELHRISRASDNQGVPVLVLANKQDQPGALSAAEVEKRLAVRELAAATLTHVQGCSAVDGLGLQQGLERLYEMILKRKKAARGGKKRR

How the values were obtained:
[1] = target: T1, Arl4A T51N fused to the LexA DNA-binding domain (UniProt P40617); experiment: two-hybrid; yeast strain L40; LexA DNA-binding domain fusions (pBTM116) against Gal4 activation domain fusions; His+ colonies patched on selective plates and assayed for β-galactosidase activity on filters; 30 °C
T1 sequence: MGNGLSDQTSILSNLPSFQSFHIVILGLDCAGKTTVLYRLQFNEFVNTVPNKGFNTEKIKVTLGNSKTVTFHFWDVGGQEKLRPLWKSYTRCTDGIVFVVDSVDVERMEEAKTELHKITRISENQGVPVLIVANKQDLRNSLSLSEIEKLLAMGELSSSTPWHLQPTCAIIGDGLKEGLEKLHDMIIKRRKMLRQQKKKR

[2] = target: GST-VPS36 (201–386) A3 mutant (UniProt Q86VN1); experiment: pull-down; 2 μg GST fusion protein on glutathione beads with 2 μg His-tagged Arl4A in 1 ml binding buffer (20 mM Tris-HCl pH 8.0, 150 mM NaCl, 5 mM MgCl2, 1 mM EDTA, 1 mM DTT, 10% glycerol, 1% Triton X-100), 1 h at 4 °C; anti-His blot; both purified
[3] = target: GST-VPS36 (201–386) A4 mutant (UniProt Q86VN1); experiment: as above
[4] = target: GST-VPS36 (201–386) A6 mutant (UniProt Q86VN1); experiment: as above
[5] = target: Arl4D T51N fused to the LexA DNA-binding domain (UniProt P49703); experiment: two-hybrid; yeast strain L40; LexA DNA-binding domain fusions (pBTM116) against Gal4 activation domain fusions; His+ colonies patched on selective plates and assayed for β-galactosidase activity on filters; 30 °C

## VPS36 (201–386) Ala-A4 mutant fused to Gal4 AD (from UniProt Q86VN1) (domain or fragment)
[1]
  binding: binds

## VPS36 (201–386) Ala-A3 mutant fused to Gal4 AD (from UniProt Q86VN1) (domain or fragment)
[1]
  binding: binds

B1: His-tagged Arl4A T51N (protein, UniProt P40617 1-200)
chain: MGNGLSDQTSILSNLPSFQSFHIVILGLDCAGKTTVLYRLQFNEFVNTVPNKGFNTEKIKVTLGNSKTVTFHFWDVGGQEKLRPLWKSYTRCTDGIVFVVDSVDVERMEEAKTELHKITRISENQGVPVLIVANKQDLRNSLSLSEIEKLLAMGELSSSTPWHLQPTCAIIGDGLKEGLEKLHDMIIKRRKMLRQQKKKR
[2]
  binding: no binding (tested: 2 μg His-tagged Arl4A in 1 ml)
[3]
  binding: no binding (tested: 2 μg His-tagged Arl4A in 1 ml)
[4]
  binding: no binding (tested: 2 μg His-tagged Arl4A in 1 ml)

B2: Gal4 transcriptional activation domain-fused VPS36 (330–386) (domain or fragment, UniProt Q86VN1 330-386)
chain: TVSEKGSLTSEEFAKLVGMSVLLAKERLLLAEKMGHLCRDDSVEGLRFYPNLFMTQS
[5]
  binding: no binding

Results are given in words; binding and its absence hold for the method and conditions named. For part of these data: A result given as binding can be weak or reduced; the word gives no strength. Tags and fused reporters may be left off the sequences shown.
